Assay results from article PMC13415957.
Results are given in words; binding and its absence hold for the method and conditions named. Binding seen in cells or lysates may run through a third protein. A result given as binding can be weak or reduced; the word gives no strength.

By UniProt entry, the sequences of proteins in these tests, tags left out. Where a name states a change or a piece, a line headed by the entry shows the natural chain unless it says otherwise.
UniProt K4D9Y4: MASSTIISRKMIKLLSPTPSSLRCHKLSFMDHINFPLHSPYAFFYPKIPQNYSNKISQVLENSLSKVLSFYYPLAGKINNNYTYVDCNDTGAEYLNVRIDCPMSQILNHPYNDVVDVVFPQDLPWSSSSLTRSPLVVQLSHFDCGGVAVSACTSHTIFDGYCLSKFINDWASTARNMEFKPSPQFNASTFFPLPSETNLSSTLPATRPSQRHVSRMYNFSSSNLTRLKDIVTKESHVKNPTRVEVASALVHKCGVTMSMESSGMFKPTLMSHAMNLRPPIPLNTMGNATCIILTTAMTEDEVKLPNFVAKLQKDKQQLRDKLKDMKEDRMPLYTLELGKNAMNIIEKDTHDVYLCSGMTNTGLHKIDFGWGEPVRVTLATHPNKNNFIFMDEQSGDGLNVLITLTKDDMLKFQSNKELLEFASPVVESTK
UniProt K4DBH0: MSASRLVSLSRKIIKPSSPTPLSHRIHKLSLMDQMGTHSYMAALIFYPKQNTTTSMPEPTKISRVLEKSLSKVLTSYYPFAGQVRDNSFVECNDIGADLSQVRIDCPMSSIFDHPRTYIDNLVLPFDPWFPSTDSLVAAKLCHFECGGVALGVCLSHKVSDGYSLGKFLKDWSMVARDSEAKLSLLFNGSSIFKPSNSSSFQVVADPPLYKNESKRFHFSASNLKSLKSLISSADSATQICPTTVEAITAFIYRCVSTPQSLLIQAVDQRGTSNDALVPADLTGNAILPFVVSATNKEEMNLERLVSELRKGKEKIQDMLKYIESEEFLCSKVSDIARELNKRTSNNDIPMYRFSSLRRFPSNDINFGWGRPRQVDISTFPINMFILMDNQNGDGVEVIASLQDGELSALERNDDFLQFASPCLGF

Target: SlASAT3–cYFP (Solanum lycopersicum (tomato)) (UniProt K4D9Y4)
Assay: split reporter; BiFC in N. benthamiana leaves co-infiltrated 1:1:1 with ER RFP marker, nYFP and cYFP constructs; YFP fluorescence by confocal microscopy 72 h after infiltration

- binding: binds
Substance: nYFP–SlASAT1 (from UniProt K4DBH0) (enzyme)
